Data: US20070104644A1, “Inhibitor imaging agents” (priority 2003, published 2007)
At least one structure is not confirmed: it was looked up by name or label, or the drawing left a doubt.

Test system: MDA-MB-231 tumour (human breast carcinoma xenograft)
Test: Imaging in MDA-MB-231 tumour model in vivo
Conditions: all time points 5 to 120 minutes post injection
Protocol: Imaging was performed with Compound 24A in the MDA-MB-231 tumour model (a human breast carcinoma xenograft model). […] 1999 May;17(3):231-8; • Lee et al, Eur. J Cancer, 2001; 37:106-113. • Weber et al Int J Oncol.

O=C(CCN(C1(C(=O)NO)CCCC1)S(=O)(=O)c1ccc(Oc2ccc(F)cc2)cc1)NCCc1ccc(O)c([123I])c1 [Compound 24A]
Region of interest ratios to muscle: greater than 2:1
